Some of the results follow.
Compound: Cc1cc(ccc1-c1ccccc1)C(=O)N1CCCN(CC1)C(=O)CCl [compound 10]
Experiment: probe-labelled cysteine peptide fold change vs DMSO (competition) (log2 fold change); higher = less target engagement (more negative = stronger competition)
Settings: THP-1, incubation time: 4 h
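Note: competitive profiling in live THP-1 cells: cysteine peptides tagged with an iodoacetamide desthiobiotin (IA-DTB) probe, intensity after compound treatment relative to DMSO-treated cells.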

By UniProt entry, the sequences of proteins in these tests, tags left out. Where a name states a change or a piece, a line headed by the entry shows the natural chain unless it says otherwise.
UniProt Q9ULT0: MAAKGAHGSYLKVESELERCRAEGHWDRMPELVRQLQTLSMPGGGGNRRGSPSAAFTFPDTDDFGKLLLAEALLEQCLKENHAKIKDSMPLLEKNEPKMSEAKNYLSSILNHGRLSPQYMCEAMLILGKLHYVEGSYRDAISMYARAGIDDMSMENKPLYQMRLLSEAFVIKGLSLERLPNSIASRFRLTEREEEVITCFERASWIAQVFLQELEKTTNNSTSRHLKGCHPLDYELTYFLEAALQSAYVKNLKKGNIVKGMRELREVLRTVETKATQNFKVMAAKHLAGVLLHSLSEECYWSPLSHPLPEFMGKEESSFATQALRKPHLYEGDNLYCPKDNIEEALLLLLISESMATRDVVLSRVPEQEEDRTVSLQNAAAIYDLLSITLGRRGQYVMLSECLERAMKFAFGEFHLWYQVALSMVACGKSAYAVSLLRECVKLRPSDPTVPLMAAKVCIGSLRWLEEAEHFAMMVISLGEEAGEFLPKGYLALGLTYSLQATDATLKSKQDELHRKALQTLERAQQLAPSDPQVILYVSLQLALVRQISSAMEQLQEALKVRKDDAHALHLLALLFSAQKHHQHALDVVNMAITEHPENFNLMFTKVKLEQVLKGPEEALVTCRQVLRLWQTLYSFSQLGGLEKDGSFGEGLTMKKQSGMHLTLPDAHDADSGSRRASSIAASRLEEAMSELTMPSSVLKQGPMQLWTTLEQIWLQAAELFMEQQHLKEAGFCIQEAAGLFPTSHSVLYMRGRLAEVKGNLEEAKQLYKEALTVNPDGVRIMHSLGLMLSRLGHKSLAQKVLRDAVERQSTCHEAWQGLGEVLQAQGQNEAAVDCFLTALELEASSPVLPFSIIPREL
UniProt Q9Y4A5, whole entry, looked up: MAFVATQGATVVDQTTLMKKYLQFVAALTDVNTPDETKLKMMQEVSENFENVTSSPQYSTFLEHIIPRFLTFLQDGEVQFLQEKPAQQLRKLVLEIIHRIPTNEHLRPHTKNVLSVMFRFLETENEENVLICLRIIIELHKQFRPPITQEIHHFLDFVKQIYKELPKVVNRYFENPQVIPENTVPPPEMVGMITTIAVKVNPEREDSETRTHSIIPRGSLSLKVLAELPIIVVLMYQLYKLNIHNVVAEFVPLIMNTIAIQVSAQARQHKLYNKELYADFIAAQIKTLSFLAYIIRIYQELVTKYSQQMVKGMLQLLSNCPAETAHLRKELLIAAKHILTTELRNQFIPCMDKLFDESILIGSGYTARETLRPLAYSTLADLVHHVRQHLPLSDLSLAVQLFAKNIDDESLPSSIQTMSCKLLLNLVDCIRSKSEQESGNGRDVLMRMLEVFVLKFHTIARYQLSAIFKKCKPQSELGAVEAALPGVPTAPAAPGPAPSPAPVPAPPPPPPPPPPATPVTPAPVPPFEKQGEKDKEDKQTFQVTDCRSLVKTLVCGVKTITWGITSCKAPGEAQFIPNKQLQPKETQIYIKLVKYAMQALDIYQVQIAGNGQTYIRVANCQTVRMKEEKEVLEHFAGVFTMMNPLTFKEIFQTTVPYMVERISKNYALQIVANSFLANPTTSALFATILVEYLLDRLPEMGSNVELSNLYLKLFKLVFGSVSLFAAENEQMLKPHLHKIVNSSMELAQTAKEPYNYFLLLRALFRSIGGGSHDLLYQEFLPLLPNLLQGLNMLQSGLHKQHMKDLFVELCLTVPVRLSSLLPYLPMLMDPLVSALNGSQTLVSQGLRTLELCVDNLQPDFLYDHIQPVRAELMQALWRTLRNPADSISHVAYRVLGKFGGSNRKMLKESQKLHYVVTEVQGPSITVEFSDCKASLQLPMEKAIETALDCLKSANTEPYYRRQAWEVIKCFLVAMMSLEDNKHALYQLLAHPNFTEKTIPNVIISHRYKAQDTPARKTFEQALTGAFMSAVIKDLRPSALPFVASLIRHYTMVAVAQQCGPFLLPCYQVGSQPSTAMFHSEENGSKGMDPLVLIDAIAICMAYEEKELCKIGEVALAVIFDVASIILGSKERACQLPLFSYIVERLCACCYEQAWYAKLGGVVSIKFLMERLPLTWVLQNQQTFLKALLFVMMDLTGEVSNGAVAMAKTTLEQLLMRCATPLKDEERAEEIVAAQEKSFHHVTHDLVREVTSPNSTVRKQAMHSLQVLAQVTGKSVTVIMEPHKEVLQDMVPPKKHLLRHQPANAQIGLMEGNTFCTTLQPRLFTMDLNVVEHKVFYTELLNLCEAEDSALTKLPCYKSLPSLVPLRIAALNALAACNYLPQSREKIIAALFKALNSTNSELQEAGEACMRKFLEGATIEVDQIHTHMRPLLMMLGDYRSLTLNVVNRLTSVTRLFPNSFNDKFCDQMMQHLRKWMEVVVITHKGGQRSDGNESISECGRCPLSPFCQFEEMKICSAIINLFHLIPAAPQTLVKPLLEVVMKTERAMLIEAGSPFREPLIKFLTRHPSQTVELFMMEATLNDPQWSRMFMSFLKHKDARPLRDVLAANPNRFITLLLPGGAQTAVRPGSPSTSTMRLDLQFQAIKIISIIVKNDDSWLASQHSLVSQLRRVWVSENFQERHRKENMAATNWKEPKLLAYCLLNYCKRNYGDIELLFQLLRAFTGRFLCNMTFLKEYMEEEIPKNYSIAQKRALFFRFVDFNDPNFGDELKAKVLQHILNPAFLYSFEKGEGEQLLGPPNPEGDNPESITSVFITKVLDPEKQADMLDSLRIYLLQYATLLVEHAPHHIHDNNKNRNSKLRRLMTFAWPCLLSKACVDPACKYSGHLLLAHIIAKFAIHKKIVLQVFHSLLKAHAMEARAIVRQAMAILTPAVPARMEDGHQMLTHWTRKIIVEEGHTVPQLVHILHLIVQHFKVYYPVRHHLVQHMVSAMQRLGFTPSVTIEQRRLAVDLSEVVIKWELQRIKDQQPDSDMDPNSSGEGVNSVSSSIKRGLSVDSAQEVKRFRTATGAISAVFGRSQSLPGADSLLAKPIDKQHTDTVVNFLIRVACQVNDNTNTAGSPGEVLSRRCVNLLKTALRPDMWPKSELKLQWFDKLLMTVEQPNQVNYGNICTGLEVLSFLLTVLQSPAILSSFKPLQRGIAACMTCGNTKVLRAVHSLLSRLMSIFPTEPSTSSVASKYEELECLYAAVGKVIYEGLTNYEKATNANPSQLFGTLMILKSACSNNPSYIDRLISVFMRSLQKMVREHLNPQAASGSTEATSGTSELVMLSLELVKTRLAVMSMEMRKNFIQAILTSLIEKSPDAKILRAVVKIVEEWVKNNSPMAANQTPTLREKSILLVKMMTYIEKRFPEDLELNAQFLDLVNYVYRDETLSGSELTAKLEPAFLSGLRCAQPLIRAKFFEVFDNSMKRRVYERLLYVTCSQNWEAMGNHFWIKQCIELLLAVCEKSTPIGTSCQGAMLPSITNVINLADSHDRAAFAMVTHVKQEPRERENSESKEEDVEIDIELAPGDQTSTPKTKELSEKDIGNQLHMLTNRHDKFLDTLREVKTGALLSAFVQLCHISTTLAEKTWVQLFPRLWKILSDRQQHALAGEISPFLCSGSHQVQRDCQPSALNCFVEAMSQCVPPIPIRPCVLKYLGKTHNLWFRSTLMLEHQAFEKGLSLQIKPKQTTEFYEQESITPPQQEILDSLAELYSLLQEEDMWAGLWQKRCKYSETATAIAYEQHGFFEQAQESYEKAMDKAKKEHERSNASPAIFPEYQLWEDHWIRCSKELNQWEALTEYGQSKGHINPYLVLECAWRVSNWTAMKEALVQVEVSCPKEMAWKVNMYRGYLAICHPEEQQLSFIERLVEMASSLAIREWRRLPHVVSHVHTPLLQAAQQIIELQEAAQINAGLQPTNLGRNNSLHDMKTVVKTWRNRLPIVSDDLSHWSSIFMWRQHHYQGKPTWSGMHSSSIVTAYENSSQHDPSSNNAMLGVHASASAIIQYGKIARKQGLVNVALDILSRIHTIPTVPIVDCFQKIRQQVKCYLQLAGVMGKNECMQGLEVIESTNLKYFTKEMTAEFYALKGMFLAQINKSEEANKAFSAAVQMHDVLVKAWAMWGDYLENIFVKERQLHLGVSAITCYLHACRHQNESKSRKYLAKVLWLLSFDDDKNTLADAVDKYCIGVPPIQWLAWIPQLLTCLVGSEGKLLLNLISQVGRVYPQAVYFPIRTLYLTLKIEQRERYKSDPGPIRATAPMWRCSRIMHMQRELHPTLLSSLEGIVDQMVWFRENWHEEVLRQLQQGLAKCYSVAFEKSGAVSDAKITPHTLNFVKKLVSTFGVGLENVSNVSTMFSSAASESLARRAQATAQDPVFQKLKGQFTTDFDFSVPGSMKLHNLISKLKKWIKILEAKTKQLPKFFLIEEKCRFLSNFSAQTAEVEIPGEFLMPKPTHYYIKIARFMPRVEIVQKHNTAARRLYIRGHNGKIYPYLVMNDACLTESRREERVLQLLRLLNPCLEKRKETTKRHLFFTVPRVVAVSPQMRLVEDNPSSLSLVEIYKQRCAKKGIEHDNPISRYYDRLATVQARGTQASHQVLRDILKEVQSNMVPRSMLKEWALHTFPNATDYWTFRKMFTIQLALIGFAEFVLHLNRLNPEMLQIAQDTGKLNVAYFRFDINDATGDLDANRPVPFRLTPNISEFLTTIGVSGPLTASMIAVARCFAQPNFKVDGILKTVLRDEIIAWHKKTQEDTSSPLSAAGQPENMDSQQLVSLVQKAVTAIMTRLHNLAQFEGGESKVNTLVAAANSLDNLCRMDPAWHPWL
UniProt Q9BRA2: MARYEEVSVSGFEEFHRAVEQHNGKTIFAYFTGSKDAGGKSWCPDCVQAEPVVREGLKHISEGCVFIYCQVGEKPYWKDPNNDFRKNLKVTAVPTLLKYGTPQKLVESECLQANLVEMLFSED
UniProt Q8NBS9: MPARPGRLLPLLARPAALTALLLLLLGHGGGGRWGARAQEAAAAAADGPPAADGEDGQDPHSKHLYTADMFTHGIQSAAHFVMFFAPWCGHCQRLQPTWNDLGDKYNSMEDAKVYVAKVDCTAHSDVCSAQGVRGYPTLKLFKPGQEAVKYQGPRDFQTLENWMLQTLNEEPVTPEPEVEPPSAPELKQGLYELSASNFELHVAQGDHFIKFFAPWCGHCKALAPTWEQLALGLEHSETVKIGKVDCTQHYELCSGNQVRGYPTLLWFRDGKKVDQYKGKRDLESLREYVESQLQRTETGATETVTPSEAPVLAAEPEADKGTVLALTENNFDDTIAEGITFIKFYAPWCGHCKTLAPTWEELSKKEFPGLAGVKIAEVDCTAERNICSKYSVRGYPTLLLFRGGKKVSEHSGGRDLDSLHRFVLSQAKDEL
UniProt Q9UNY4: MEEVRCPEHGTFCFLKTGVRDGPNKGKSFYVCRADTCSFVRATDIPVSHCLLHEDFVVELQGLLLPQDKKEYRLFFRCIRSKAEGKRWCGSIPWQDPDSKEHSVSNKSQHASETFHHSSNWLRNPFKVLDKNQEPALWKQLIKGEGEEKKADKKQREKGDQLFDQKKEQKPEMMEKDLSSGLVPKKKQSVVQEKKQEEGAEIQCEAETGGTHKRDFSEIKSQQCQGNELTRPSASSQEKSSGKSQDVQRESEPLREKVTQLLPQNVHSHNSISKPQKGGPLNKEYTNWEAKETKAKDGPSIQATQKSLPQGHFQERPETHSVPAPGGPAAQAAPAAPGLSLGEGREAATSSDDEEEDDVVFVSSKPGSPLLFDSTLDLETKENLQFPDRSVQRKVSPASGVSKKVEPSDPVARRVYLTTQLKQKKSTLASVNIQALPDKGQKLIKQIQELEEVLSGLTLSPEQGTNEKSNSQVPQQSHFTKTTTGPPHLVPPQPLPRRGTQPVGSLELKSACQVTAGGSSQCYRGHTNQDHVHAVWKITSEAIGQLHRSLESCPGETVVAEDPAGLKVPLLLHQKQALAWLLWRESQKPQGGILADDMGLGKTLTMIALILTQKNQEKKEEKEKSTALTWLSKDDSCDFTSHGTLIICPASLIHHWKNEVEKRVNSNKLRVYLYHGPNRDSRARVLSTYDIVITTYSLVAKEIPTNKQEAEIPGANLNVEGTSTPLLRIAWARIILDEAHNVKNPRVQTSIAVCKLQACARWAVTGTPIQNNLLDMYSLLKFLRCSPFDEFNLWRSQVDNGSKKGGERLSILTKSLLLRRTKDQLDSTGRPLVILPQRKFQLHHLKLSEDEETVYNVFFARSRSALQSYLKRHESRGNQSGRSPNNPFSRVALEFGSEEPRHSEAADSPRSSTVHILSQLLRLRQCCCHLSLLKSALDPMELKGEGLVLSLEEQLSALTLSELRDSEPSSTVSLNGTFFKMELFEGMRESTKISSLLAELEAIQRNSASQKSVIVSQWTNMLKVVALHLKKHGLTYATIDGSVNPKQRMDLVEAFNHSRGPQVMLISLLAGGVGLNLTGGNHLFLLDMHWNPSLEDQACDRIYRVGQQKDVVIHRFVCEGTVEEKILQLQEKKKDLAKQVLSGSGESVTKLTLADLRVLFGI

Target	probe-labelled cysteine peptide fold change (10 µM)	probe-labelled cysteine peptide fold change (50 µM)
TTC7A_Q9ULT0_733_EAGFCIQEAAGLFPTSHSVLYMR (UniProt Q9ULT0)	0.14	0.488
TTC27_Q6P3X3_743_CDTQSNCWEK (UniProt Q6P3X3)	-0.181	-0.602
TROVE2_P10155_305_MTANSVLEPGNSEVSLVCEK (UniProt P10155)	-0.205	-0.161
TTC27_Q6P3X3_299_EGDVLSNCEFTPAPTPQEHLTK (UniProt Q6P3X3)	-0.418	-0.376
TTC37_Q6PGP7_715_ADVSCLWK (UniProt Q6PGP7)	-0.171	-0.0251
TUT4_Q5TAX3_20_KNVICEESK (UniProt Q5TAX3)	-0.253	-0.439
TXLNG_Q9NUQ3_127_TDPPDGQQDSECNR (UniProt Q9NUQ3)	-0.25	-0.355
TTC37_Q6PGP7_675_GLGECHLMMAK (UniProt Q6PGP7)	0.0644	-0.241
TSR1_Q2NL82_753_CSFDGK (UniProt Q2NL82)	-0.291	-0.317
TTC21B_Q7Z4L5_72_QDVSLCSLLALIYAHK (UniProt Q7Z4L5)	0.0834	0.332
TRPM2_O94759_72_ECVYFVESSK (UniProt O94759)	-0.0415	-0.249
TRRAP_Q9Y4A5_852_TLELCVDNLQPDFLYDHIQPVR (UniProt Q9Y4A5)	-0.0635	0.262
TTC7A_Q9ULT0_337_KPHLYEGDNLYCPK (UniProt Q9ULT0)	-0.132	0.184
TUBGCP2_Q9BSJ2_350_TMDILASLATSVDKGECLGGSTLSLLHDR (UniProt Q9BSJ2)	-0.0286	-0.273
TTC7A_Q9ULT0_623_GPEEALVTCR (UniProt Q9ULT0)	0.0236	0.115
TUBB6_Q9BUF5_127_ECEHCDCLQGFQLTHSLGGGTGSGMGTLLISK (UniProt Q9BUF5)	0.0743	-0.111
TTC28_Q96AY4_274_TLGDQTGECR (UniProt Q96AY4)	0.126	-0.18
TTC37_Q6PGP7_600_DFNCWESLGEAYLSR (UniProt Q6PGP7)	0.129	0.156
TTC7A_Q9ULT0_121_LSPQYMCEAMLILGK (UniProt Q9ULT0)	0.271	0.227
TTC38_Q5R3I4_128_ACELWEQILQDHPTDMLALK (UniProt Q5R3I4)	0.154	-0.0986

Taken from above.
Value of TTC27_Q6P3X3_743_CDTQSNCWEK (UniProt Q6P3X3) under probe-labelled cysteine peptide fold change (10 µM): -0.181
Value of TTC38_Q5R3I4_128_ACELWEQILQDHPTDMLALK (UniProt Q5R3I4) under probe-labelled cysteine peptide fold change (10 µM): 0.154
Value of TRRAP_Q9Y4A5_852_TLELCVDNLQPDFLYDHIQPVR (UniProt Q9Y4A5) under probe-labelled cysteine peptide fold change (50 µM): 0.262

(list continues)

Target	probe-labelled cysteine peptide fold change (10 µM)	probe-labelled cysteine peptide fold change (50 µM)
TUBGCP3_Q96CW5_388_TLAALVDHCQGRK (UniProt Q96CW5)	-0.034	-0.0661
TXNDC17_Q9BRA2_69_HISEGCVFIYCQVGEK (UniProt Q9BRA2)	-0.0351	-0.0869
TSFM_P43897_315_FECGEGEEAAETE (UniProt P43897)	-0.0477	0.106
TXNDC5_Q8NBS9_350+353_FYAPWCGHCK (UniProt Q8NBS9)	-0.375	-1.05
TST_Q16762_64_HVPGASFFDIEECR (UniProt Q16762)	0.141	0.000964
TSR1_Q2NL82_618_AKEELIFHCGFR (UniProt Q2NL82)	0.0728	0.00431
TXNDC11_Q6PKC3_815_ECLQSEAVLQR (UniProt Q6PKC3)	-0.265	-0.101
TRRAP_Q9Y4A5_3085_CYLQLAGVMGK (UniProt Q9Y4A5)	-0.309	0.325
TTC1_Q99614_28_VTDTQEAECAGPPVPDPKNQHSQSK (UniProt Q99614)	-0.121	-0.23
TSEN54_Q7Z6J9_338_ETDAESWCQK (UniProt Q7Z6J9)	-0.24	-0.172
TTC39C_Q8N584_97_LCESEEAGVIETIK (UniProt Q8N584)	-0.142	0.0415
TSN_Q15631_225_ETAAACVEK (UniProt Q15631)	-0.291	-0.282
TTF2_Q9UNY4_13_CPEHGTFCFLK (UniProt Q9UNY4)	0.253	-0.144
TXNIP_Q9H3M7_63_VLWMQGSQQCK (UniProt Q9H3M7)	-0.134	-0.964
TSEN34_Q9BSV6_262_FHAHYIAQCWAPEDTIPLQDLVAAGR (UniProt Q9BSV6)	-0.132	0.164
TTC37_Q6PGP7_1422_AAEMCYR (UniProt Q6PGP7)	0.00584	0.0614
TTC7A_Q9ULT0_199_LTEREEEVITCFER (UniProt Q9ULT0)	0.0306	-0.0334
TXNDC5_Q8NBS9_381_IAEVDCTAER (UniProt Q8NBS9)	-0.374	-0.275
TTF2_Q9UNY4_522_SACQVTAGGSSQCYR (UniProt Q9UNY4)	0.0142	-0.629

— the supplement of paper PMC12067093, “Discovery and optimisation of a covalent ligand for TRIM25 and its application to targeted protein ubiquitination” (Chemical Science, 2025)
